In article PMC6508795:
Results are given in words; binding and its absence hold for the method and conditions named. In cells and extracts the contact can be indirect. Sequences can lack the tags named with a protein.

Biological target: TRX-x (BiFC fusion) (Arabidopsis thaliana)
Assay: split reporter; BiFC: YFP-N and YFP-C fusions (pSPYNE-35S, pSPYCE-35S) coexpressed in N. benthamiana leaves by Agrobacterium GV3101 infiltration; confocal imaging of YFP and chlorophyll autofluorescence 3 days after infiltration

Row | binding | Binder
1 | no binding | PGR5 (BiFC fusion) (protein, UniProt Q9SL05 61-133) KNVNEGKGLFAPLVVVTRNLVGKKRFNQLRGKAIALHSQVITEFCKSIGADAKQRQGLIRLAKKNGERLGFLA
2 | no binding | NdhS (BiFC fusion) (protein, UniProt Q9T0A4 49-250) AMGKFNLWEVMGGRGLCNGEKGIEKELQRNIEDEQETSKAENNETERESDDSNLSFKVPEDGFEKEMMGLTGGFPGGEKGLKTFIEKNPPPPPPPPPAKQGSDASAVATDKKPKAPKLPLLMPGMIAIVKNQNSPYHMYCGIVQRITDGKAGVLFEGGNWDRLITFRLEELERREKGPPGKNPKSCILEPLIEQMQKEEAAP
